# From PubChem BioAssay AID504467 (National Center for Advancing Translational Sciences (NCATS), 2011)
# Hit rate of the full screen: of about 330,000 compounds, about 7,700 (2.3%) were called active. Inconclusive results, whose numbers are uncertain, are shown with a selection of clear calls. The call rests on the fitted dose curve; in most records, active means well fitted inhibition curve with a large enough effect; inconclusive means small, poorly fitted or top-dose-only effect, or effect the other way; inactive means flat fitted curve, though single readings scatter. Potencies of inconclusive entries are doubtful fits and often do not repeat.
# Experiment: qHTS screen for small molecules that inhibit ELG1-dependent DNA repair in human embryonic kidney (HEK293T) cells expressing luciferase-tagged ELG1; further: nearly all actives have a fitted effect of over 55% in size
# Details: HEK293T ELG1-luciferase reporter, luminescence, 16 h, DNA damage induced by 5-fluorouridine; series mostly up to 46.1 µM
# Outline: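 HEK293T cells expressing luciferase-tagged ELG1 (2,000/well) received 5-Fluorouridine plus compound or DMSO for 16 hr at 37 °C. Luciferase was read by ONE-Glo luminescence after 30 min at room temperature.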
# Potency means the concentration at half of the fitted maximal effect.
row,SMILES,Potency
1,Cc1nc(-c2cccc(Br)c2)ccc1C(=O)O,"inconclusive: 16.4 µM [activator, partial curve, poor fit]"
2,O=C(CSc1nc(-c2cccs2)nc2ccccc12)NC1CCS(=O)(=O)C1 (stereo not given),"inconclusive: 6.51 µM [inhibitor, single point]"
3,COc1ccc(-c2c(C#N)c(N)nc3c2c(=O)n(C)c(=O)n3C)cc1,"inconclusive: 16.4 µM [inhibitor, partial curve, poor fit]"
4,CC(C)OC(=O)CN1C(=O)S/C(=C/c2ccc(N3CCCCC3)o2)C1=O,"inconclusive: 32.6 µM [activator, partial curve, poor fit]"
5,CCC(=O)NCCc1nc2cc(NC(=O)c3cccc([N+](=O)[O-])c3)ccc2n1C,"inconclusive: 14.6 µM [activator, partial curve]"
6,CCS(=O)(=O)N1Cc2ccccc2CC1C(=O)Nc1nc2c(C)cccc2s1 (stereo not given),"inconclusive: 29.1 µM [inhibitor, single point]"
7,CCOc1ccc2nc(NC(=O)C3CSC4(C)CCC(=O)N34)sc2c1 (stereo not given),inactive
8,COc1ccc(NC(=O)CN(C)C(=O)CCSc2ccc(F)cc2)cc1,inactive
9,O=C(O)CCC(=O)N1N=C(c2ccccc2)CC1c1cccs1 (stereo not given),"inconclusive: 32.6 µM [activator, partial curve, poor fit]"
10,Cn1c(=O)n(CCc2ccccc2)c(=O)c2c1nc1n2CCCN1CCc1ccccc1,active: 23.1 µM
11,CCn1c(/N=C/c2ccc(OC)cc2O)nc2ccccc21,inactive
12,Cc1cc(N2CCCC2)ccc1NC(=O)CN1C(=O)NC2(CCCCC2)C1=O,inactive
13,CC1(C)Oc2ccc(C(=O)NC3CCCC3)cc2N(CC(=O)NC2CCCCC2)C1=O,"inconclusive: 8.2 µM [inhibitor, partial curve, poor fit]"
14,Cc1ccc(C)c(N/N=C2\CCCNC2=O)c1,"inconclusive: 11.6 µM [activator, partial curve]"
15,O=C(c1ccc(Cn2c(=O)[nH]c3ccccc3c2=O)cc1)N1CCN(c2ccccc2)CC1,"inconclusive: 29.1 µM [inhibitor, single point]"
16,Cc1cccc(C(=O)OCC(=O)c2c(C)[nH]c3ccccc23)c1O,"inconclusive: 18.3 µM [activator, partial curve]"
17,O=C(NCCCn1ccnc1)c1cc2c(ccc3ccccc32)o1,"inconclusive: 18.3 µM [activator, single point]"
18,CC(C)C(NC(=O)c1ccc(C(C)(C)C)cc1)C(=O)NCCc1ccccn1 (stereo not given),inactive
19,Cc1onc(-c2ccccc2)c1C(=O)OCC(=O)NCc1ccc(F)cc1,"inconclusive: 23.1 µM [inhibitor, partial curve, poor fit]"
20,Cc1cn(-c2cc(NC(=O)c3ccc(C)c(NC(=O)c4cccc(-c5cn[nH]c(=O)c5)c4)c3)cc(C(F)(F)F)c2)cn1,"inconclusive: 4.61 µM [inhibitor, single point]"
21,COc1ccc(/C=C/C(=O)c2ccc(NS(=O)(=O)c3ccc(C)cc3)cc2)cc1O,"inconclusive: 29.1 µM [inhibitor, single point]"
22,CCNS(=O)(=O)c1ccc(NC(=S)N2CCc3ccccc32)cc1,inactive
23,COc1cc(OC)cc(C(=O)NNC(=O)c2nn(C)c(=O)c3ccccc23)c1,"inconclusive: 23.1 µM [inhibitor, single point]"

# An excerpt of these results, as tab-separated lines:
row	SMILES	Potency
2	O=C(CSc1nc(-c2cccs2)nc2ccccc12)NC1CCS(=O)(=O)C1 (stereo not given)	inconclusive: 6.51 µM [inhibitor, single point]
3	COc1ccc(-c2c(C#N)c(N)nc3c2c(=O)n(C)c(=O)n3C)cc1	inconclusive: 16.4 µM [inhibitor, partial curve, poor fit]
4	CC(C)OC(=O)CN1C(=O)S/C(=C/c2ccc(N3CCCCC3)o2)C1=O	inconclusive: 32.6 µM [activator, partial curve, poor fit]

# (cont.)

row,SMILES,Potency
1,Cc1cccc(C)c1NC(=O)CSc1nnc(C2CCCCC2)o1,inactive
2,COc1ccc(OC)c(NC(=O)c2nnn(Cc3ccc(Br)cc3F)c2N)c1,active: 20.6 µM
3,COc1ccc(/C(N)=N/OC(=O)C2CCCCC2)cc1OC,"inconclusive: 2.31 µM [activator, partial curve]"
4,COc1ccc(CCC(=O)Nc2ccc3c(c2)OCCO3)cc1,"inconclusive: 20.6 µM [activator, single point]"
5,CC(C)(C)OC(=O)NCCCCCNC(=O)c1[nH]cnc1C(=O)Nc1ccccc1,"inconclusive: 23.1 µM [inhibitor, single point]"
6,O=S(=O)(Nc1cc(C(F)(F)F)ccc1N1CCOCC1)c1ccc2ccccc2c1,inactive
7,O=C(CSCc1ccc(Cl)cc1)Nc1cccc(C(=O)Nc2ccccc2C(=O)O)c1,"inconclusive: 29.1 µM [activator, single point]"
8,CCCCCCSc1ccc([C@H]2N[C@@](Cc3ccccc3)(C(=O)OC)[C@H]3C(=O)N(CC)C(=O)[C@@H]23)cc1,inactive
9,CN1CCC(=O)N([C@H](COc2ccccc2)Cc2ccccc2)CC1,"inconclusive: 10.3 µM [activator, single point]"
10,COc1ccc(NC(=O)CN2C(=O)NC3(CCCCC3C)C2=O)cc1OC (stereo not given),inactive
11,Oc1c(Br)cc(Br)cc1CNn1cnnc1,inactive
12,COC(=O)COc1c(Cl)cc(Cl)c2ccc(C)nc12,"inconclusive: 29.1 µM [inhibitor, single point]"
13,O=C(Nc1ccccc1)Nc1n[nH]c2nnc(-c3ccccc3)c(-c3ccccc3)c12,inactive
14,Cn1c2ccsc2c2ncn(Cc3ccc(F)cc3)c(=O)c21,"inconclusive: 25.9 µM [inhibitor, single point]"
15,Cc1csc2nc(CSc3nc4ccccc4o3)cn12,"inconclusive: 20.6 µM [activator, partial curve]"
16,O=C(Nc1cnccn1)c1cccs1,inactive
17,Cc1cccc(/C(N)=N/OC(=O)c2ccoc2C)c1,"inconclusive: 8.2 µM [activator, partial curve]"
18,COc1cc(C2C(C#N)=C(N)N(N(C)C)C3=C2C(=O)CC(C)(C)C3)cc(OC)c1OC (stereo not given),inactive
19,Cc1cc(O)c(NC(=O)c2ccco2)cc1C,"inconclusive: 29.1 µM [activator, single point]"
20,O=C(NCc1ccco1)/C(=C\c1ccc(F)cc1)NC(=O)c1ccco1,"inconclusive: 23.1 µM [activator, partial curve, poor fit]"
21,O=C(NC1CCCCC1)C(c1ccc(Cl)cc1)N(C(=O)c1ccccn1)c1cccnc1 (stereo not given),inactive
22,CN(C)c1ccc(/C=C(\C#N)c2ccccn2)cc1,"inconclusive: 0.116 µM [activator, full curve, poor fit]"
